{"source": "patent US9738657B2", "about": "“Highly efficient polarizing agents for dynamic nuclear polarization” (Bruker Biospin S.A.S., priority 2013, dated 2017)", "key": {"[1]": {"experiment": "1H DNP signal enhancement, 1H-13C cross polarization with and without microwave irradiation", "conditions": "97 K, 8 kHz MAS, 10 mM biradical, 0.25 M 13C-15N Proline in glycerol-d8/D2O/H2O (60/30/10); for 263 GHz DNP ε (1H DNP signal enhancement): 9.4 T; for 395 GHz DNP ε (1H DNP signal enhancement): 14.1 T"}, "[2]": {"experiment": "Polarization build-up time Tpol, saturation recovery with continuous microwave irradiation", "conditions": "97 K, 8 kHz MAS, 10 mM biradical, 0.25 M 13C-15N Proline in glycerol-d8/D2O/H2O (60/30/10); for 263 GHz Tpol (polarization build-up time): 9.4 T; for 395 GHz Tpol (polarization build-up time): 14.1 T"}}}
{"molecule": "[O]N1C2(CCOCC2)CC(N2CC(O)CN(C3CC4(CCOCC4)N([O])C4(CCOCC4)C3)C2=O)CC12CCOCC2", "note": "(stereo not shown) [Compound 69, 5-Hydroxy-1,3-bis(7-oxyl-3,11-dioxa-7-azadispiro[5.1.5.3]-hexadec-15-yl)tetrahydropyrimidin-2(1H)-one]", "values": [{"measurement": "263 GHz DNP ε (1H DNP signal enhancement)", "setting": "[1]", "result": 290}, {"measurement": "395 GHz DNP ε (1H DNP signal enhancement)", "setting": "[1]", "result": 160}]}
{"molecule": "(4-{(2,5,8,11-tetraoxatridecan-13-yl)[(1-oxyl-2,2,6,6-tetramethyl piperidin-4-yl)carbamoyl]amino}-2,2,6,6-tetramethylpiperidin-1-yl)oxidanyl [Compound 52]", "values": [{"measurement": "263 GHz DNP ε (1H DNP signal enhancement)", "setting": "[1]", "result": 120}]}
{"molecule": "[O]N1C2(CCOCC2)CC(NC(=O)NC2CC3(CCOCC3)N([O])C3(CCOCC3)C2)CC12CCOCC2", "note": "(stereo not shown) [Compound 56, (15-{[(7-Oxyl-3,11-dioxa-7-azadispiro[5.1.5.3]hexadec-15-yl)carbamoyl]amino}-[3,11-dioxa-7-azadispiro[5.1.5.3]hexadec-7-yl])oxidanyl]", "values": [{"measurement": "263 GHz Tpol (polarization build-up time)", "setting": "[2]", "result": 5.7, "unit": "s"}, {"measurement": "395 GHz Tpol (polarization build-up time)", "setting": "[2]", "result": 8.7, "unit": "s"}, {"measurement": "263 GHz DNP ε (1H DNP signal enhancement)", "setting": "[1]", "result": 207}, {"measurement": "395 GHz DNP ε (1H DNP signal enhancement)", "setting": "[1]", "result": 128}]}
{"molecule": "4,4-ureylene-di-(2,2,6,6-tetramethylpiperidinyloxyl) [bTUrea, reference compound]", "values": [{"measurement": "263 GHz Tpol (polarization build-up time)", "setting": "[2]", "result": 16.5, "unit": "s"}, {"measurement": "263 GHz DNP ε (1H DNP signal enhancement)", "setting": "[1]", "result": 62}]}
{"molecule": "(4-{[2-(2-methoxyethoxy)ethyl][(1-oxyl-2,2,6,6-tetramethylpiperidin-4-yl)carbamoyl]amino}-2,2,6,6-tetramethylpiperidin-1-yl)oxidanyl [Compound 51]", "values": [{"measurement": "263 GHz Tpol (polarization build-up time)", "setting": "[2]", "result": 5.6, "unit": "s"}, {"measurement": "395 GHz Tpol (polarization build-up time)", "setting": "[2]", "result": 7.7, "unit": "s"}, {"measurement": "263 GHz DNP ε (1H DNP signal enhancement)", "setting": "[1]", "result": 120}, {"measurement": "395 GHz DNP ε (1H DNP signal enhancement)", "setting": "[1]", "result": 81}]}
{"molecule": "O=C(NC1CC2(CCOCC2)N(O)C2(CCOCC2)C1)N(CCOCCO)C1CC2(CCOCC2)N(O)C2(CCOCC2)C1", "note": "(stereo not shown) [Compound 71, (15-{[(7-Oxyl-3,11-dioxa-7-azadispiro[5.1.5.3]hexadec-15-yl)carbamoyl][2-(2-hydroxyethoxy)ethyl]amino}-[3,11-dioxa-7-azadispiro[5.1.5.3]hexadec-7-yl])oxidanyl]", "values": [{"measurement": "263 GHz DNP ε (1H DNP signal enhancement)", "setting": "[1]", "result": 303}]}
{"molecule": "COCCOCCOCCOCCOC1CN(C2CC3(CCOCC3)N([O])C3(CCOCC3)C2)C(=O)N(C2CC3(CCOCC3)N([O])C3(CCOCC3)C2)C1", "note": "(stereo not shown) [Compound 70, 1,3-Bis(7-oxyl-3,11-dioxa-7-azadispiro[5.1.5.3]hexadec-15-yl)-5-(2,5,8,11-tetraoxatridecan-13-yloxy)tetrahydropyrimidin-2(1H)-one]", "values": [{"measurement": "263 GHz DNP ε (1H DNP signal enhancement)", "setting": "[1]", "result": 278}, {"measurement": "395 GHz DNP ε (1H DNP signal enhancement)", "setting": "[1]", "result": 138}]}
